No constants are given. Whether binding was seen depends on the method and setting.
Target: recombinant human histone 1 (human) (UniProt P07305)
Assay: far-Western, overlay or dot blot; 50 ng of each recombinant human histone resolved on a 15% SDS-polyacrylamide gel, transferred on PVDF membrane, probed with biotinylated IGFBP-3, detected with streptavidin-HRP; both purified

Chains of the proteins cited; added tags and fusions are not shown.
UniProt P07305: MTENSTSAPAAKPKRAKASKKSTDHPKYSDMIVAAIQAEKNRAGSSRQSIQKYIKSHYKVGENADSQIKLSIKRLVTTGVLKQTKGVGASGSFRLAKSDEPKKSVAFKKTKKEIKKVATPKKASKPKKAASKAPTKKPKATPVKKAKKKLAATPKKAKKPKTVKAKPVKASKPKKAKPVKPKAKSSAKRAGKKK

biotinylated human IGFBP-3 (insulin-like growth factor binding protein-3) (from UniProt P17936 28-291)
binding: no binding (tested: 50 ng)

Source: paper PMC7796407
